Data as given in the supplement of paper PMC12819154, “High-throughput peptide-centric local stability assay extends protein–ligand identification to membrane proteins, tissues and bacteria” (Nature Structural & Molecular Biology, 2025).
Some of the results follow. Small differences around the control level are noise.

Amino acid sequences for entries named in this document (tags omitted). A change or cut given only in a name is not applied to a line headed by its entry.
UniProt P62304, whole entry: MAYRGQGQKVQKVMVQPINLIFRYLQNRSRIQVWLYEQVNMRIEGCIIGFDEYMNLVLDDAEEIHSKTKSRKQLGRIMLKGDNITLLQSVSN
UniProt P81605: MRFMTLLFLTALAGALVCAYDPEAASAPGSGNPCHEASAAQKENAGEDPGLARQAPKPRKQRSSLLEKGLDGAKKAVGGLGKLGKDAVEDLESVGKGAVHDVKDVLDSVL
UniProt P67870, whole entry: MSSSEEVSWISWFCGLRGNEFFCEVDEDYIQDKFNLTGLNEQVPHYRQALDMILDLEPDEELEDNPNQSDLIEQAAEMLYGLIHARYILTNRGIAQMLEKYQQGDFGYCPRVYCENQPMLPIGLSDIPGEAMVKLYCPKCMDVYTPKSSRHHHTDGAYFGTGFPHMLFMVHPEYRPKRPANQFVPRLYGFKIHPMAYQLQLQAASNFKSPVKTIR
UniProt P55786: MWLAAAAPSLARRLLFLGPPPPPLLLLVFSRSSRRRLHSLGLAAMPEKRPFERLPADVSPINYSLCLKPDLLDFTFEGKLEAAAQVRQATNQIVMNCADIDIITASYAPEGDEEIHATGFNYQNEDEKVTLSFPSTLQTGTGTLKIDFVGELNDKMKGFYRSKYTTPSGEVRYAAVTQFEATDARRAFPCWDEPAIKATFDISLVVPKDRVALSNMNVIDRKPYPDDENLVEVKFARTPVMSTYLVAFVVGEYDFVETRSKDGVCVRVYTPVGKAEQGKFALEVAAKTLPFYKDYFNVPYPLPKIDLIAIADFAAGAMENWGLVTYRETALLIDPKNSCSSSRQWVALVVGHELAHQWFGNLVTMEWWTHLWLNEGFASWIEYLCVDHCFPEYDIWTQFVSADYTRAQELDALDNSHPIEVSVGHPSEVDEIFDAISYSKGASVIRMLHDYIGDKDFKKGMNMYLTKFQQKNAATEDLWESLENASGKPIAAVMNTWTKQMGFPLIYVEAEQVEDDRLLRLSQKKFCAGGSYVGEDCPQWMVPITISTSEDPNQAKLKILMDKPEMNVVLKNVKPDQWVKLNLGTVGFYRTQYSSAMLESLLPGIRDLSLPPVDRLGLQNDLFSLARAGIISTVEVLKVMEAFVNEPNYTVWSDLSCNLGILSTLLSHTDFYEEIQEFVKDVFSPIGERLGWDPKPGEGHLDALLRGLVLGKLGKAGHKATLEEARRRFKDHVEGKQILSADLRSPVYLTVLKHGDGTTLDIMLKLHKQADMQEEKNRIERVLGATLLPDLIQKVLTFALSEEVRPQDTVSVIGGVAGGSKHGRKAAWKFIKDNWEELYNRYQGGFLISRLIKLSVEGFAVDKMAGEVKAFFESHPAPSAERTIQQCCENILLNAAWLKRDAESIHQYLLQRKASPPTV
UniProt P61129: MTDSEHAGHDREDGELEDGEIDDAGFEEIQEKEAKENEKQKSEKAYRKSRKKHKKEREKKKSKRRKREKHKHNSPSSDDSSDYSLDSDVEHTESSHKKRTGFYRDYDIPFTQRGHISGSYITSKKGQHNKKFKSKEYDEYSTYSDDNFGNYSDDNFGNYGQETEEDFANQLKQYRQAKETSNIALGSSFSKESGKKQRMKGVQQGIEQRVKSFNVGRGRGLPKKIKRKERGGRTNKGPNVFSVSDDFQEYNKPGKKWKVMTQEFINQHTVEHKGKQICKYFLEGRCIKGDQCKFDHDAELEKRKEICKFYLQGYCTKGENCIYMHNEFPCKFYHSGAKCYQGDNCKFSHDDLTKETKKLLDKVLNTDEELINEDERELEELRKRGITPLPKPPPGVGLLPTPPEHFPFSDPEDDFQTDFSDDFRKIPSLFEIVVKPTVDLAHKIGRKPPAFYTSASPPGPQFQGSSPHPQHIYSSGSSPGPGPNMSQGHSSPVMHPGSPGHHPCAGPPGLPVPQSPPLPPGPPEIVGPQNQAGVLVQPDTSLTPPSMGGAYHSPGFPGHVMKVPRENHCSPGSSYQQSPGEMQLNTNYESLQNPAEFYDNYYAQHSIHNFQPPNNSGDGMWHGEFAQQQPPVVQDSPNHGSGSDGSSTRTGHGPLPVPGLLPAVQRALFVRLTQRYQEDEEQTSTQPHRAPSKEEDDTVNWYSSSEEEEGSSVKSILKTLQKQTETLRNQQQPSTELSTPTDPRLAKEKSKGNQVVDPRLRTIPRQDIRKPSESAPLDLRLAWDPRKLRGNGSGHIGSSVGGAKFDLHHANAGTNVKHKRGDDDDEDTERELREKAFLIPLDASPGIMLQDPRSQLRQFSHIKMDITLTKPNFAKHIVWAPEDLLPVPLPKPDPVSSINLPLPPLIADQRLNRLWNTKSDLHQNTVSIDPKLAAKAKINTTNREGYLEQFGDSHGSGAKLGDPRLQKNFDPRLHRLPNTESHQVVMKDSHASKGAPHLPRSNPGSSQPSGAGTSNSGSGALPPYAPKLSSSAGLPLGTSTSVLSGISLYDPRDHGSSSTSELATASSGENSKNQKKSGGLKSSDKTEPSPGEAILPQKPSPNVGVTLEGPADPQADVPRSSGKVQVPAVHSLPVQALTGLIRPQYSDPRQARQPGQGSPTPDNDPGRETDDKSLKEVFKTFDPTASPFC
UniProt P61201: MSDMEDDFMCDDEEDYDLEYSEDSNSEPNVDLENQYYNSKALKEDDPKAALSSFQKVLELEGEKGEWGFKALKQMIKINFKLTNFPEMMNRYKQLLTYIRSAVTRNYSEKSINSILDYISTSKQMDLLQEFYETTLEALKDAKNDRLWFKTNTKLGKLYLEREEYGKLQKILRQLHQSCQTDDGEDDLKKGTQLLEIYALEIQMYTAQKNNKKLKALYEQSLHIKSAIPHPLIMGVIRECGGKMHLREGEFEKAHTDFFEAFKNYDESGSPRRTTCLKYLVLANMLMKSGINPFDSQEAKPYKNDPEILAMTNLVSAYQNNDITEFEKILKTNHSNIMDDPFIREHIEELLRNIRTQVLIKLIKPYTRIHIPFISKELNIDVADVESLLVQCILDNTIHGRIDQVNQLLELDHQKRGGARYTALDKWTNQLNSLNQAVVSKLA
UniProt P55345: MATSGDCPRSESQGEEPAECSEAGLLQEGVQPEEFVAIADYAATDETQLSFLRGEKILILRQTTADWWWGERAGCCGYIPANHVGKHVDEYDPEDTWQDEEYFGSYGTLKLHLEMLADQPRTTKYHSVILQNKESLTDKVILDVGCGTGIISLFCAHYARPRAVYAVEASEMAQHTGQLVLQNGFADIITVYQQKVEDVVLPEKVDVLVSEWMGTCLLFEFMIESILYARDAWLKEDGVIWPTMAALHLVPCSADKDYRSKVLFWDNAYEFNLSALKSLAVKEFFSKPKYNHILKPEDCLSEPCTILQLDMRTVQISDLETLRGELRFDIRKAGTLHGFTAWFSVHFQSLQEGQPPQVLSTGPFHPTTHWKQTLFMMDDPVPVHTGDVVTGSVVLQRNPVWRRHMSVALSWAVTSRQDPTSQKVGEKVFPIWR
UniProt P57768: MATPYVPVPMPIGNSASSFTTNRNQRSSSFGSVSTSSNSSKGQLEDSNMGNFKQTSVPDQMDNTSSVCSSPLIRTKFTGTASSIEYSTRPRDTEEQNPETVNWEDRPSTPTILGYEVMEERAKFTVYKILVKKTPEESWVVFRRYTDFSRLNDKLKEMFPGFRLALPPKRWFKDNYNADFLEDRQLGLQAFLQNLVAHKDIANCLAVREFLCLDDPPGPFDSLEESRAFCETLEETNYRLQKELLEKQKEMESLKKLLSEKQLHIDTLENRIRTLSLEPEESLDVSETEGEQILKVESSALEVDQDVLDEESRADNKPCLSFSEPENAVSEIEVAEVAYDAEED
UniProt P55008: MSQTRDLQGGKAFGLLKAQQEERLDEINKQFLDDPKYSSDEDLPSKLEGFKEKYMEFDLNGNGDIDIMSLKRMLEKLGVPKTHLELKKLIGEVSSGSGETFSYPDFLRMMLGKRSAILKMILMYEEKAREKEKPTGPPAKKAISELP
UniProt P56556, whole entry: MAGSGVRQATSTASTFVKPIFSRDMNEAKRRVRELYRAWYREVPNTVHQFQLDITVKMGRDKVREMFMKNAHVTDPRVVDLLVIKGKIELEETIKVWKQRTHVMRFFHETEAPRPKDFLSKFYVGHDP
UniProt P55265: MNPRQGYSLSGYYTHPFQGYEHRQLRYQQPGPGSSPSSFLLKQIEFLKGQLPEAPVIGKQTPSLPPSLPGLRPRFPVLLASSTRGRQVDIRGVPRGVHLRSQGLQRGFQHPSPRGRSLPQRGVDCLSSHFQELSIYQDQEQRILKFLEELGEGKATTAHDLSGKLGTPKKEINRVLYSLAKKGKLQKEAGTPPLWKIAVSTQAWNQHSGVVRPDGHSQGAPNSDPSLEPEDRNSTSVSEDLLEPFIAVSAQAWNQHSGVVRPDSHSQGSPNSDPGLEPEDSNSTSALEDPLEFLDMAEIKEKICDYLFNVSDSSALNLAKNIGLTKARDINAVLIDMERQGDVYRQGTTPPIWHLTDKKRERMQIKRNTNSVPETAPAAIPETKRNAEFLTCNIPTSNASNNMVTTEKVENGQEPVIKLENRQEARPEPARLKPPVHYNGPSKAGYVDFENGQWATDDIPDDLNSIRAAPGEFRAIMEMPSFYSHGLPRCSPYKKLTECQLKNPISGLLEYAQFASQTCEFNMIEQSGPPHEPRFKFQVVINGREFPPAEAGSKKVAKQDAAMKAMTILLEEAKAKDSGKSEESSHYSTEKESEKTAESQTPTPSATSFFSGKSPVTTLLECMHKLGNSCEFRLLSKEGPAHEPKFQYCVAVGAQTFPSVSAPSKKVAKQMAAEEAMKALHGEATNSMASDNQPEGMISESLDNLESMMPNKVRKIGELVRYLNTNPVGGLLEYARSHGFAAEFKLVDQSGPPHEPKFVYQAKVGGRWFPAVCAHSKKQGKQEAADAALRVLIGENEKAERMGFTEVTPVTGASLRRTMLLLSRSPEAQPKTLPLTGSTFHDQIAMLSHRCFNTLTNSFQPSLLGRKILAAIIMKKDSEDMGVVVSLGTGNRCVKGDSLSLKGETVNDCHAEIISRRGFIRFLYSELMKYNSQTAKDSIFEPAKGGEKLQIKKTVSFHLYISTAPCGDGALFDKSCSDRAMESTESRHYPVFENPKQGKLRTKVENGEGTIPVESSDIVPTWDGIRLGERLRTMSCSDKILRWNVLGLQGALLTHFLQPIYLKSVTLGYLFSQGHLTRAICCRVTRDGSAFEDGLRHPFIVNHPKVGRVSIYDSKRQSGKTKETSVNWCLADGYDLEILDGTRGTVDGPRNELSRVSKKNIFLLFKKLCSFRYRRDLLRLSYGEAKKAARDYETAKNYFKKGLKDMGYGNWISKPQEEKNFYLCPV
UniProt P55198: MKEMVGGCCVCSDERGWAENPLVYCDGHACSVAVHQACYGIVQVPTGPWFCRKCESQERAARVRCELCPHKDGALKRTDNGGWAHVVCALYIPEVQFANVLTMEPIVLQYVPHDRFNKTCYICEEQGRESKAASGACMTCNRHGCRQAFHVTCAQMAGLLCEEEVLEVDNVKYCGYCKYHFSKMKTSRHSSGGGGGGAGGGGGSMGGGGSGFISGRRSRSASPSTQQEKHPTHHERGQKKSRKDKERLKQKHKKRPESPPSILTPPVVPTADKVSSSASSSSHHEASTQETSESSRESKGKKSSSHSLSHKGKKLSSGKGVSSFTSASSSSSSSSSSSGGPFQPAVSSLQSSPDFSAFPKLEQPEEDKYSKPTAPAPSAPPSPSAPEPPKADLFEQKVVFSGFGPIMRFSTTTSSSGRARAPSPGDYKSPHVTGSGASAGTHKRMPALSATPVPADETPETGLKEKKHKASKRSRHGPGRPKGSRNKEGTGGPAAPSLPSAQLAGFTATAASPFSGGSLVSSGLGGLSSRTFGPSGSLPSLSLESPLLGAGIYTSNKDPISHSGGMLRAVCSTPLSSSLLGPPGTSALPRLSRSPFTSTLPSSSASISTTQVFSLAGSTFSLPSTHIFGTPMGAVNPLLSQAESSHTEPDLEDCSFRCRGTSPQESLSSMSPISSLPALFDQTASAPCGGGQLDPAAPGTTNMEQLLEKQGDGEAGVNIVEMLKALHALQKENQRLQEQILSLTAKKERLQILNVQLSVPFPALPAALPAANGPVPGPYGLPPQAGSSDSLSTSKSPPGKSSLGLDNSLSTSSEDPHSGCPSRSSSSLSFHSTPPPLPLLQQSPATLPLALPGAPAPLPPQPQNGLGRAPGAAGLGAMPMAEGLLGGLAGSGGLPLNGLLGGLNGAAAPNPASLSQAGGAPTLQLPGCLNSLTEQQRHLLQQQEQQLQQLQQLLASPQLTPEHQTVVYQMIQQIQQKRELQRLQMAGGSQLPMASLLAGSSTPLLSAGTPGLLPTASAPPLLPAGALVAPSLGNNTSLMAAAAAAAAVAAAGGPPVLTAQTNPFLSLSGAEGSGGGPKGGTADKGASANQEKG
UniProt P57729: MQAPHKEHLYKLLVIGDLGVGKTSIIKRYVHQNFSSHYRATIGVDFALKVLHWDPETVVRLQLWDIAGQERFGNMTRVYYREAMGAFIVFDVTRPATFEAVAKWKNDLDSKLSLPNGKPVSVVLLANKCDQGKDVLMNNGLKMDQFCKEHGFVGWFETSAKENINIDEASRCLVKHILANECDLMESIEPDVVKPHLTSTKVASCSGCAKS

Compound: Cc1nc(Nc2ncc(C(=O)Nc3c(C)cccc3Cl)s2)cc(N2CCN(CCO)CC2)n1 [dasatinib]
Test: log2 fold change of tryptic peptide abundance, ligand vs vehicle (limited proteolysis) (log2 ratio); higher = more trypsin-susceptible (destabilized)
Settings: ligand concentration: 5 uM; sample: K562 cleared lysate

Target | log2 fold change
UniProt P62826 (peptide sequence: AAQGEPQVQFK, peptide start residue: 2) | 0.111
UniProt P62304 (peptide sequence: VMVQPINLIFR, peptide start residue: 13) | -0.0728
MRPS15 (peptide sequence: RNPDSPAK, peptide start residue: 240) (UniProt P82914) | 0.26
MRPS10 (peptide sequence: DLTKPVVTISDEPDILYKR, peptide start residue: 57) (UniProt P82664) | 0.402
DCD (peptide sequence: ENAGEDPGLAR, peptide start residue: 43) (UniProt P81605) | -0.487
SRPK2 (peptide sequence: LQEIEELEREAER, peptide start residue: 287) (UniProt P78362) | 0.131
EIF5 (peptide sequence: VLTLSDDLER, peptide start residue: 225) (UniProt P55010) | 0.217
CSNK2B (peptide sequence: GIAQMLEK, peptide start residue: 93) (UniProt P67870) | -0.37
NPEPPS (peptide sequence: LGWDPKPGEGHLDALLR, peptide start residue: 690) (UniProt P55786) | 0.25
UniProt P61513 (peptide sequence: AVGIWHCGSCMK, peptide start residue: 51) | 0.0451
CCT2 (peptide sequence: STLGPKGMDKILLSSGR, peptide start residue: 41) (UniProt P78371) | 0.285
UniProt P61129 (peptide sequence: GNGSGHIGSSVGGAK, peptide start residue: 790) | 0.467
MRPS22 (peptide sequence: VPINDVLAEDK, peptide start residue: 136) (UniProt P82650) | 0.344
UniProt P61201 (peptide sequence: IDQVNQLLELDHQKR, peptide start residue: 402) | -0.142
UniProt P59998 (peptide sequence: ELLLQPVTISR, peptide start residue: 45) | -0.0947
UniProt P62701 (peptide sequence: FDTGNLCMVTGGANLGR, peptide start residue: 175) | 0.323
PRMT2 (peptide sequence: AGCCGYIPANHVGK, peptide start residue: 73) (UniProt P55345) | 0.187
SNX16 (peptide sequence: TKFTGTASSIEYSTRPR, peptide start residue: 75) (UniProt P57768) | 0.159
MRPS6 (peptide sequence: TIEALMDR, peptide start residue: 25) (UniProt P82932) | 0.0533
UniProt P62841 (peptide sequence: KQHSLLKR, peptide start residue: 52) | -0.177
AIF1 (peptide sequence: THLELKK, peptide start residue: 82) (UniProt P55008) | 0.309
NDUFA6 (peptide sequence: IELEETIKVWK, peptide start residue: 88) (UniProt P56556) | 0.605
UniProt P57053 (peptide sequence: ESYSVYVYK, peptide start residue: 36) | 0.0663
MLLT10 (peptide sequence: AQTSGIEEETVK, peptide start residue: 453) (UniProt P55197) | -0.968
ADAR (peptide sequence: QGDVYRQGTTPPIWHLTDK, peptide start residue: 340) (UniProt P55265) | -0.116
UniProt P55198 (peptide sequence: SPHVTGSGASAGTHKR, peptide start residue: 429) | -0.686
MRPS35 (peptide sequence: KHCEALKDFCTEWPAALDSDEK, peptide start residue: 121) (UniProt P82673) | 0.667
UniProt P57729 (peptide sequence: ATIGVDFALK, peptide start residue: 56) | -0.0119
PSMD4 (peptide sequence: LQAQQDAVNIVCHSKTR, peptide start residue: 26) (UniProt P55036) | -0.797

Single values from the results shown:
log2 fold change, MRPS6 (peptide sequence: TIEALMDR, peptide start residue: 25) (UniProt P82932) reads 0.0533
log2 fold change, UniProt P61513 (peptide sequence: AVGIWHCGSCMK, peptide start residue: 51) reads 0.0451
